Values are the deposited “Percent Effect”, in %.
The controls that fix the scale are not given in the record; negative values are as filed.
Compounds were drawn at random from those tested, without regard to their results.
A dash means the value is not listed here; it may have been measured.

Amino acid sequences for entries named in this document (tags omitted).
UniProt I6X8D2, whole entry: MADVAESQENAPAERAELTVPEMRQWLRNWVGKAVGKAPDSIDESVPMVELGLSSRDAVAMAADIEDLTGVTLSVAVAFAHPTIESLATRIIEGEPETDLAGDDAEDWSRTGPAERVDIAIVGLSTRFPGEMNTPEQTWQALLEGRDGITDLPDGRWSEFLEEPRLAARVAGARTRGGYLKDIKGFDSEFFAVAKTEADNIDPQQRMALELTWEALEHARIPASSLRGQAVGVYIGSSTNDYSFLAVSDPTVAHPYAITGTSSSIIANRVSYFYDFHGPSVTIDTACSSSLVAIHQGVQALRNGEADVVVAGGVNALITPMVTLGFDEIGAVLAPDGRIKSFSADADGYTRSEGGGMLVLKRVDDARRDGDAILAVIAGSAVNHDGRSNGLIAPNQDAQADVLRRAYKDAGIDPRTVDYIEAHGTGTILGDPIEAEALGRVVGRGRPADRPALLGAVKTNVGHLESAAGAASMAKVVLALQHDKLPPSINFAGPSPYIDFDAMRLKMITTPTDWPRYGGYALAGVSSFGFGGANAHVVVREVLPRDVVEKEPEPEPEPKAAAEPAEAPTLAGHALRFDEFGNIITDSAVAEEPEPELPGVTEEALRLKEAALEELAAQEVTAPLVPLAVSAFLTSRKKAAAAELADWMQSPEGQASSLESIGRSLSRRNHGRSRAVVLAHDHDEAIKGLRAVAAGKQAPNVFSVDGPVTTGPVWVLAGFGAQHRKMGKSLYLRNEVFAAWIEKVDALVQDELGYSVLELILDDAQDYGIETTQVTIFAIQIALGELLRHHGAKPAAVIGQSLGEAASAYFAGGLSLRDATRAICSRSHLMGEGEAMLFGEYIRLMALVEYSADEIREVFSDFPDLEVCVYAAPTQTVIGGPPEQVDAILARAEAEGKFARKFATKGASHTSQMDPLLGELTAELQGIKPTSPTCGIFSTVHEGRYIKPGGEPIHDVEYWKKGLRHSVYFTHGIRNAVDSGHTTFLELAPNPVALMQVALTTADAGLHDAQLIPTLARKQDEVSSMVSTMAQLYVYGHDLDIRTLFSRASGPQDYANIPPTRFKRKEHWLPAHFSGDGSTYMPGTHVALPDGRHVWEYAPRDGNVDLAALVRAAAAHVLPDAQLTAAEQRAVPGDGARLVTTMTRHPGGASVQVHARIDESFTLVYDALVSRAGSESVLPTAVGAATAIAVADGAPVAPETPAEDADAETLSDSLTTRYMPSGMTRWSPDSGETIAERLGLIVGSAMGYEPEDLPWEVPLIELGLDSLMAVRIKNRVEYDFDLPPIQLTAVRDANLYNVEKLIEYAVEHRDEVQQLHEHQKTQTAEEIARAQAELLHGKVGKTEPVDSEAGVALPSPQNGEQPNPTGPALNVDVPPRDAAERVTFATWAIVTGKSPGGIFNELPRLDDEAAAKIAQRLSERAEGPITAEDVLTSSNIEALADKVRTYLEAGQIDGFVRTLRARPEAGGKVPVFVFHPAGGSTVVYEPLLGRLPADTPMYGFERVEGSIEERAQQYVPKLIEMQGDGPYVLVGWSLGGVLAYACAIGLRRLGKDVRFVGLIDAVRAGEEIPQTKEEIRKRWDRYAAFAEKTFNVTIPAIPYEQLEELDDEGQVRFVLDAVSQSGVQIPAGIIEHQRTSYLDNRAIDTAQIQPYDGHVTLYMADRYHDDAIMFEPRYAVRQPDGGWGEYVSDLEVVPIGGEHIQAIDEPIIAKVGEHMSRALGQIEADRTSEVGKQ

Toxoplasma: 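Assay of Toxoplasma gondii numbers, read through their beta-galactosidase reporter with a colour substrate. Concentration: 10 µM. The record gives no direction; the compounds picked for IC50 retests had high values, so higher reads as fewer parasites. About 67,000 compounds were tested under these conditions; 0.38% (about 260) showed 50% or more at least once.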
Pks13 thioesterase: 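Polyketide synthase Pks13, Mycobacterium tuberculosis (UniProt I6X8D2). Enzyme assay of the thioesterase domain of polyketide synthase 13; the read-out is not stated. Compounds at 30 µM. Higher reads as stronger inhibition (inferred from which compounds were picked for retests). About 67,000 compounds were tested under these conditions; 0.46% (about 300) showed 50% or more at least once.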

SMILES,Toxoplasma,Pks13 thioesterase
CC(NS(C)(=O)=O)C(=O)Nc1ccc2oc(C3CC3)nc2c1 (stereo not shown),3.344,-29.06
O=C(O)C(F)(F)F.[H][C@@]12C[C@H](C(=O)N3CCCCO3)CN(C(=O)c3ccccn3)[C@]1([H])CCO2,-1.577,-
[H][C@@]12C[C@@H](OC)C[C@]1([H])CN(C(=O)c1ccc(C)s1)C2,-15.34,-
Cn1ccnc1CN1CCC2(CC(=O)N(c3ccccn3)C2)C1.O=C(O)C(F)(F)F.O=C(O)C(F)(F)F (stereo not shown),-17.35,-
CCN(Cc1cccc(F)c1)Cn1nc(C)c2c(C)onc2c1=O,-36.77,-9.786
CC1(c2ccc(Br)cc2)CC(=O)N(CCC#N)C1=O (stereo not shown),15.96,-18.01
CC(C)N(Cc1ccccc1)C(=O)NCCNC(=O)c1cccnc1,4.327,9.087
COc1c(CNCc2ccc(N3CCCC3)nc2)c(C(C)C)nn1C,-2.402,-6.388
[H][C@@]12CC[C@H](Oc3ccccc3Cl)[C@]1([H])CN(C(=O)COCCOC)C2,-24.44,-
CCC(CO)N(Cc1ccccn1)Cc1ccc(-c2ccn[nH]2)s1 (stereo not shown),-1.902,-39.1
O=C(N[C@@H]1CN(c2ncccn2)[C@@H]2CCCO[C@@H]21)c1cnccn1,-,-13.25
O=C(NCc1ccon1)N1CCC(n2ccc(C(F)(F)F)n2)CC1,1.134,-2.908
CN1CC2(CCCN(c3cnccn3)C2)OC1=O (stereo not shown),-10.89,-7.067
CN(CCCC1CCCO1)S(=O)(=O)NCc1ccccc1 (stereo not shown),-25.14,-6.797
[H][C@]12CC[C@]([H])(CN(c3cc(OC)ncn3)C1)N(CC1CCC1)C2=O,4.29,-
CC(=O)OCc1ccc(CN2CCCCCC2c2cc(C)no2)o1 (stereo not shown),19.87,4.877
CN1CCOC(CNCc2csc(C3CCCC3)n2)C1 (stereo not shown),9.808,4.549
CCNC(=O)c1cnc(Sc2nccn2C)c(Cl)c1,12.01,-33.64
[H][C@@]12OCCN(C(=O)c3nn(C)c4ccccc34)[C@@]1([H])CC[C@@H]2OC,-1.807,-
C=C(C)CN1CCC(Nc2nc(C)ns2)CC1,-6.639,-8.067
COCCN1CCOCC2(C1)CN(C(=O)c1conc1C)CCO2 (stereo not shown),-,4.206
c1ccc(Cc2nnc(CN3CCCCC3Cn3cncn3)o2)cc1 (stereo not shown),-22.42,-13.53
CSCc1cc(F)ccc1CNCc1cccc(O)c1,-7.017,-1.059
N#Cc1cccc(CN2CCCC2Cn2cncn2)c1 (stereo not shown),5.181,-12.62
COc1cccc(CSc2nnc(C)n2CC(N)=O)c1,7.53,-8.308
Cc1csc(Nc2cc(C3CN(C(C)C)C3)nc(C)n2)n1,-16.38,-1.215
CN(C)C(=O)[C@@H]1C[C@@H]2[C@@H](CCN2Cc2nccs2)O1,-,-31.69
O=C(Cn1ccnc1)N1C[C@@H]2CC[C@H](Oc3ccccc3Cl)[C@@H]2C1,-,-51.61
COc1ccc(-c2cn3c(n2)CO[C@@H](CNCc2nccn2C)C3)cc1,14.68,-4.263
Cc1nn(CC(C)C)c(N(C)C)c1CNCc1ccccc1CO,-20.97,11.36
CCN(CC)c1ncc(Cl)c(C(=O)NC2CCc3nccn3C2)n1 (stereo not shown),1.474,-31.13
CC(=O)N1CCC(Cc2cnc(Nc3cc(C)on3)cn2)CC1,-,-8.682
CCC1c2ccsc2CCN1C(=O)NCc1ccc(C)nc1 (stereo not shown),-39.67,-13.86
[H][C@@]12CCN(C(=O)c3ccccc3)C[C@@]1([H])O[C@H](c1nnc(C3CC3)o1)C2,-10.52,-
CCS(=O)(=O)CCCN1CCSCC1c1ccc(Cl)cc1 (stereo not shown),5.843,-6.186
CCn1ccnc1CN1CCN(Cc2ccc(C#N)cc2)CC1,7.198,-14.99
COCCn1ccc(=O)c(OCC(=O)Nc2ccc(Br)cc2)c1C,22.24,-12.33
Cn1cccc1CN1CCC2(CCCN(C(=O)c3cnccn3)C2)C1.O=C(O)C(F)(F)F (stereo not shown),-2.328,-
CC(Cc1cccc(Cl)c1)NC(=O)NCc1ncnn1C (stereo not shown),11.35,35.4
Cc1ccc(C(=O)O)cc1NC(=O)C1CC=CC1,-0.6472,18.35
CC(C)c1n[nH]c(C2CN(C(=O)c3cc(C(N)=O)cs3)CCO2)n1 (stereo not shown),-2.204,-14.25
CC[C@H](C)[C@@H](CO)NC(C)Cc1ccc(F)cc1 (stereo partly shown),24.24,-3.909
COCC1c2c(cnn2C)CCN1Cc1cccc(C)c1.O=C(O)C(F)(F)F.O=C(O)C(F)(F)F (stereo not shown),-3.643,-
CCS(=O)(=O)N1C[C@H]2CN(Cc3cccc(C)c3)C(=O)[C@H]2C1,-,-6.856
COc1cccc(CN2CC3(CCNCC3)CCC2=O)c1OC,16.41,-15.26
Cc1nc(CO[C@H]2CN(Cc3cccs3)[C@@H]3COC[C@H]23)cs1,-,0.4214
CCCC(=O)N1CC[C@@H]2[C@H](CC1)N(Cc1cccnc1)CCS2(=O)=O,-,-9.232
Fc1cccc(N2CCCC3(CN(Cc4ccccn4)CCO3)C2)c1.O=C(O)C(F)(F)F.O=C(O)C(F)(F)F.O=C(O)C(F)(F)F (stereo not shown),22.93,-
CC1(C2CCN(CC(N)=O)CC2)CN(Cc2ccccc2)C(=O)CO1 (stereo not shown),17.11,7.645
CC(=O)N1CCC2(CC1)CN(C(=O)c1cccnc1)c1ccc(F)cc12,-,-11.49
CCOC(=O)Cn1nnnc1-c1ccccc1,-11.44,-13.4
COCCS(=O)(=O)NC(C)c1cccc(C)c1C (stereo not shown),-4.368,-16.29
COCCCC1(CO)CCCN(Cc2nccs2)C1 (stereo not shown),6.621,-35.34
Cl.Cl.Cn1ccc(CN2CCOCC23CCNCC3)n1,-10.34,-
CN(C(=O)CCOc1ccccc1)C1CCN(CC2CCOC2)CC1 (stereo not shown),-10.87,-9.35
CC(C)c1cc(NC(=O)CN2CCC(C(N)=O)CC2)on1,-24.41,-21.1
CC(C)Nc1nc2c(c(NC3CC3)n1)CCN(Cc1nccn1C)CC2,-,-18.26
Cc1ccc(C(=O)N2C[C@@H]3CN(S(C)(=O)=O)CCO[C@@H]3C2)s1,-,-43.05
CC(C)OCc1ccc(CNC(=O)CC(F)(F)F)cc1,-7.47,-11.8
[H][C@]12CCN(C(=O)Cc3ccc4c(c3)CCCC4)CC[C@]1([H])N(C)C(=O)CO2,1.638,-
NS(=O)(=O)c1ccc(C(=O)N2CCCC2c2ccccc2)o1 (stereo not shown),-4.119,-15.36
Cc1nc(CSCCC(=O)NCc2ccncc2)cs1,-22.19,-5.411
Cc1ncc(-c2ccnc(NC3CC3)n2)c(-c2cccnc2)n1,6.894,-10.49
Cc1cccc(CN2CCn3cc(CNC(=O)CC4CC4)nc3C2)n1,-0.958,-0.7348
COc1ccc(CN(C)[C@@H]2COC[C@H]2c2ccc(F)cc2)c(OC)c1,-,29.5
CC(C)=CCN1C[C@H]2CC[C@@H]1CN(C(=O)c1ccc3[nH]cnc3c1)C2,-,-0.9854
Cc1cc(-c2cnn(CCNC(=O)c3snnc3C)c2C2CC2)on1,11.89,90.24
CCn1nc(CNC(=O)C2CCCN(CC(N)=O)C2)c2ccccc21 (stereo not shown),-6.965,-28.89
CCOc1ccc(C#N)cc1NCC(=O)NC(=O)NC,-19.07,-0.2691
Cc1cccc(C(=O)N2CCCN(CCc3scnc3C)CC2)c1,-1.167,-15.94
Cc1nc(C(C)C)sc1C(=O)N1CCC(N2CCSCC2)CC1,9.329,-0.4151
CCc1ccc(CN2CCc3ncnc(-c4cccnc4)c3CC2)o1.O=C(O)C(F)(F)F.O=C(O)C(F)(F)F,3.193,-
O=C(c1ccoc1)N1CCO[C@]2(CCC[C@H]2COCc2cccnc2)C1,-,-29.84
CC1CCN(CC2CCN(C(=O)c3c[nH]c4ncccc34)CC2)CC1,1.256,-28.72
CC(=O)c1ccc(OCC(=O)NC(C)CCc2ccco2)cc1 (stereo not shown),-2.885,-5.41
CCn1c(NCc2cccnc2)nc2c(C)nn(C)c2c1=O,57.44,-4.309
O=C(NCc1cccc(N2CC=CC2)c1)NC1CC1,-41.75,-30.13
Cc1cc(CN(Cc2ccccc2)CC(O)c2cccs2)on1 (stereo not shown),-16.19,-51.37

Once more, the final 4:

CC(=O)c1ccc(OCC(=O)NC(C)CCc2ccco2)cc1 (stereo not shown) read Toxoplasma: -2.885%; Pks13 thioesterase: -5.41%.
CCn1c(NCc2cccnc2)nc2c(C)nn(C)c2c1=O read Toxoplasma: 57.44%; Pks13 thioesterase: -4.309%.
O=C(NCc1cccc(N2CC=CC2)c1)NC1CC1 read Toxoplasma: -41.75%; Pks13 thioesterase: -30.13%.
Cc1cc(CN(Cc2ccccc2)CC(O)c2cccs2)on1 (stereo not shown) read Toxoplasma: -16.19%; Pks13 thioesterase: -51.37%.

From ChEMBL document CHEMBL3988442, “University of Dundee, Small-Polar-MMV Screening Library” (2021).